Assay results reported in PMC3688941, “Characterization of a Chitin-Binding Protein from Bacillus thuringiensis HD-1” (PLoS ONE, 2013).
No constants are given. Whether binding was seen depends on the method and setting. A result given as binding can be weak or reduced; the word gives no strength.

Sequences of proteins named here, by UniProt entry; tags and fusion partners are left off. A change or cut given only in a name is not applied to a line headed by its entry.
UniProt E5L4Y0: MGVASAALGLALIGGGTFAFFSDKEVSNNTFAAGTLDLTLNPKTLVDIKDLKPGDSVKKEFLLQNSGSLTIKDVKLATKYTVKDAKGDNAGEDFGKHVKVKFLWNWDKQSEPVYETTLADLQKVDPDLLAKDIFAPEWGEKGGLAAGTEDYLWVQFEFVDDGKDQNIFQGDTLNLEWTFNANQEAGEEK
UniProt P05068: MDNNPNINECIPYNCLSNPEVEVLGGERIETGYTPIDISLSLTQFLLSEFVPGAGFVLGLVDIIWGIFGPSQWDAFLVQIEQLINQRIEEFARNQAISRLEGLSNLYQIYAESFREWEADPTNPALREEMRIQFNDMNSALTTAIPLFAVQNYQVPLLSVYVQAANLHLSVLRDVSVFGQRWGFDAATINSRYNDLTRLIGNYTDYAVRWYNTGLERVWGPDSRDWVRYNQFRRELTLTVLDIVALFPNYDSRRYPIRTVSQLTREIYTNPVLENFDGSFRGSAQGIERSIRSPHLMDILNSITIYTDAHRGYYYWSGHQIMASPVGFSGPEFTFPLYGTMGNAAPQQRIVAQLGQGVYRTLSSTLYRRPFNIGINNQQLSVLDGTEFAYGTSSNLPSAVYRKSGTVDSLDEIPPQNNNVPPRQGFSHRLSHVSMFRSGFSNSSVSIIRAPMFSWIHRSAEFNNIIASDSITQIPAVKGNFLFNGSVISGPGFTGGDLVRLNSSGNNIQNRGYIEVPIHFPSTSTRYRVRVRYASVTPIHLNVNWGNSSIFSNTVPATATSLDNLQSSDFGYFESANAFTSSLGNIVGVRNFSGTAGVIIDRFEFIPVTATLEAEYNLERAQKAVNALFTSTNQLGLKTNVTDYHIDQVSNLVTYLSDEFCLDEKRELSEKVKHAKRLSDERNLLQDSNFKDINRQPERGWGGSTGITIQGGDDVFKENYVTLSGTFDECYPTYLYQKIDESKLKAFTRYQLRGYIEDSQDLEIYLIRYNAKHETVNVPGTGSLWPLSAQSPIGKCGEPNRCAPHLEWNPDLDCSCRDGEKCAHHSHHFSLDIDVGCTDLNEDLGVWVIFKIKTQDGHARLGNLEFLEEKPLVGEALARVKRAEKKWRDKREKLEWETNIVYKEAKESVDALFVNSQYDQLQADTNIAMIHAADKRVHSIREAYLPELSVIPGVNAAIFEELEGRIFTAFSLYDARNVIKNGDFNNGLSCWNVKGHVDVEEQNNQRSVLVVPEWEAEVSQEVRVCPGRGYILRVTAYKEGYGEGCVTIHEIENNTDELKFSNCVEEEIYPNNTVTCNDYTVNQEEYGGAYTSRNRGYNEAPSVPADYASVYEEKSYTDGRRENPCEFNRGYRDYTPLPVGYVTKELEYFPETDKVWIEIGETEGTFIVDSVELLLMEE

Columns and labels:
[1] = target: recombinant Bt-CBP21 (chitin-binding protein of Bacillus thuringiensis HD-1), 6X His (Bacillus thuringiensis HD-1) (UniProt E5L4Y0); test: pull-down; both purified
[2] = target: recombinant Bt-CBP21 (chitin-binding protein of Bacillus thuringiensis HD-1), 6X His (Bacillus thuringiensis HD-1) (UniProt E5L4Y0); test: circular dichroism; 150 µg of each purified protein, mixture 1:1, 10 mM sodium-phosphate pH 7.0, 24°C; spectrum of the mixture against the single spectra; both purified

For “Cry1Ac protoxin (130 kDa) (from UniProt P05068 1-1178)”, which binding [1] is on record?
The binding was “binds”.

What about the binding [2] of the same substance?
The binding was “binds”.
